Several values for one entry are separate records, joined by “and”; a condition that tells them apart may be missing. Equal values may be shown once. Some results are limits rather than exact numbers.

Here are results for eight molecules from publication PMC8618441, “From Natural Xanthones to Synthetic C-1 Aminated 3,4-Dioxygenated Xanthones as Optimized Antifouling Agents” (Marine Drugs, 2021).

The subject of this data set is Mytilus galloprovincialis plantigrade larvae. The data set can be described thus: Toxicity (LC50, therapeutic ratio) toward mussel plantigrade larvae. The format is in vivo. Particulars: therapeutic ratio LC50 (μM)/EC50 (μM), mussel plantigrades. The protocol: For the bioassays, M. galloprovincialis juveniles were collected in intertidal mussel beds during low tides in Memória beach, Matosinhos, Portugal (41°13′59″ N; 8°43′28″ W). Mussel plantigrade larvae (0.5–2 mm) were sorted in a binocular magnifier (Olympus SZX2-ILLT, Tokyo, Japan) and those presenting foot exploring behavior for settlement were selected to the screening bioassays at 50 µM performed in 24-well microplates for 15 h, in the dark at 18 ± 1 °C, according to Almeida et al.. Four well replicates per condition and five competent larvae per well were included. Negative and positive controls were included, namely DMSO (0.1%) and CuSO4 (5 µM) as an efficient antifouling agent. Stock solutions in DMSO (50 mM) were used to prepare test media (50 µM) in filtered seawater (0.1% DMSO). After the exposure period, the anti-settlement bioactivity was determined by the observation of efficiently attached plantigrade larvae considering the existence/absence of produced byssal threads for each test condition.
Data from the anti-settlement screening were analyzed using a one-way analysis of variance (ANOVA), followed by a Dunnett test against the negative control (p < 0.05). […] Therapeutic ratios (LC50/EC50) were used to evaluate the effectiveness versus toxicity of bioactive compounds. […] The mixed model ANOVA was performed on log10(x + 1)-transformed values from 4 biological replicates, employing the software IBM SPSS Statistics (version 21, SPSS Inc., Chicago, IL, USA).

As for `COc1cc(CNCCN2CCOCC2)c2c(=O)c3ccccc3oc2c1OC` [Compound 16, 3,4-dimethoxy-1-(((2-morpholinoethyl)amino)methyl)-9H-xanthen-9-one], the LC50/EC50 was >5.71.

As for `COc1cc(CO)c2c(=O)c3ccccc3oc2c1OC` [Compound 8, 1-(hydroxymethyl)-3,4-dimethoxy-9H-xanthen-9-one], the LC50/EC50 is on record as >4.59. The figure for `COc1cc(CN2CCCCC2)c2c(=O)c3ccccc3oc2c1OC` [Compound 23, 3,4-dimethoxy-1-(piperidin-1-ylmethyl)-9H-xanthen-9-one] is > 15 and >28.01. As to `COc1ccc2c(=O)c3c(C)cc(OC)c(OC)c3oc2c1` [Compound 2, 3,4,6-trimethoxy-1-methyl-9H-xanthen-9-one], the LC50/EC50 is reported as >3.69. The figure for `COc1ccc2c(=O)c3c(CCl)cc(OC)c(OC)c3oc2c1` [Compound 4, 1-(chloromethyl)-3,4,6-trimethoxy-9H-xanthen-9-one] is >6.19; for `COc1cc(CN2CCc3c(N)cccc3C2)c2c(=O)c3ccccc3oc2c1OC` [Compound 21, 1-((5-amino-3,4-dihydroisoquinolin-2(1H)-yl)methyl)-3,4-dimethoxy-9H-xanthen-9-one] it is >13.74. With `COc1cc(CN2CCN(CCO)CC2)c2c(=O)c3ccccc3oc2c1OC` [Compound 19, 1-((4-(2-hydroxyethyl)piperazin-1-yl)methyl)-3,4-dimethoxy-9H-xanthen-9-one], the LC50/EC50 is reported as >1.86.

For the molecule `COc1cc(C)c2c(=O)c3ccccc3oc2c1OC` [Compound 1, 3,4-dimethoxy-1-methyl-9H-xanthen-9-one], the LC50/EC50 is >8.47.
